Assay results taken from paper PMC12561182, “Gal3‐CaN‐Smurf1 Complex Sequestrates FLCN‐FNIPs to Facilitate TFEB Activation in Response to Endomembrane Damage” (Advanced Science, 2025).
Substitutions are numbered along the chain they refer to. Results are given in words; binding and its absence hold for the method and conditions named. In cells and extracts the contact can be indirect. Binding can be weak; no strength is given. Where a sequence is shown, tags or fusion partners need not be part of it.

What was measured:
HA-FNIP2 (1-391) = biological target: T1, HA-FNIP2 (1-391) (UniProt Q9P278); experiment: co-IP; tagged protein expressed in HEK293 cells (lysate on beads, 4 °C overnight), then incubated with the bacterial-expressed protein purified from E. coli; in some panels cells treated with LLOMe (1 mM, 2 h) or DMSO, or with siRNA or overexpression of a third protein; which side was precipitated is not told for each panel; only the binder purified
T1 sequence: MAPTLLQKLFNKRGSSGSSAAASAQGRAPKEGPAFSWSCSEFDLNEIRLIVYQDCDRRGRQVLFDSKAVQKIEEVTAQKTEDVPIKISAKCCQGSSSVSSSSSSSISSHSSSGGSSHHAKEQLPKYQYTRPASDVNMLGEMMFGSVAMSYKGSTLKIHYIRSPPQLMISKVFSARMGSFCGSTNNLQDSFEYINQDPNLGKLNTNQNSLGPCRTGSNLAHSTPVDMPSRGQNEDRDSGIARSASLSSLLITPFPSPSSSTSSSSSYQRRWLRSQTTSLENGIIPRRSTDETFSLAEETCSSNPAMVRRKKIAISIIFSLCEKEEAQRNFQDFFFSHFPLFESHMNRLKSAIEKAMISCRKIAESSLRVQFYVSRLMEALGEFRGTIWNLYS

HA-FNIP2 [1] = biological target: T2, HA-FNIP2 (UniProt Q9P278); experiment: as above
T2 sequence: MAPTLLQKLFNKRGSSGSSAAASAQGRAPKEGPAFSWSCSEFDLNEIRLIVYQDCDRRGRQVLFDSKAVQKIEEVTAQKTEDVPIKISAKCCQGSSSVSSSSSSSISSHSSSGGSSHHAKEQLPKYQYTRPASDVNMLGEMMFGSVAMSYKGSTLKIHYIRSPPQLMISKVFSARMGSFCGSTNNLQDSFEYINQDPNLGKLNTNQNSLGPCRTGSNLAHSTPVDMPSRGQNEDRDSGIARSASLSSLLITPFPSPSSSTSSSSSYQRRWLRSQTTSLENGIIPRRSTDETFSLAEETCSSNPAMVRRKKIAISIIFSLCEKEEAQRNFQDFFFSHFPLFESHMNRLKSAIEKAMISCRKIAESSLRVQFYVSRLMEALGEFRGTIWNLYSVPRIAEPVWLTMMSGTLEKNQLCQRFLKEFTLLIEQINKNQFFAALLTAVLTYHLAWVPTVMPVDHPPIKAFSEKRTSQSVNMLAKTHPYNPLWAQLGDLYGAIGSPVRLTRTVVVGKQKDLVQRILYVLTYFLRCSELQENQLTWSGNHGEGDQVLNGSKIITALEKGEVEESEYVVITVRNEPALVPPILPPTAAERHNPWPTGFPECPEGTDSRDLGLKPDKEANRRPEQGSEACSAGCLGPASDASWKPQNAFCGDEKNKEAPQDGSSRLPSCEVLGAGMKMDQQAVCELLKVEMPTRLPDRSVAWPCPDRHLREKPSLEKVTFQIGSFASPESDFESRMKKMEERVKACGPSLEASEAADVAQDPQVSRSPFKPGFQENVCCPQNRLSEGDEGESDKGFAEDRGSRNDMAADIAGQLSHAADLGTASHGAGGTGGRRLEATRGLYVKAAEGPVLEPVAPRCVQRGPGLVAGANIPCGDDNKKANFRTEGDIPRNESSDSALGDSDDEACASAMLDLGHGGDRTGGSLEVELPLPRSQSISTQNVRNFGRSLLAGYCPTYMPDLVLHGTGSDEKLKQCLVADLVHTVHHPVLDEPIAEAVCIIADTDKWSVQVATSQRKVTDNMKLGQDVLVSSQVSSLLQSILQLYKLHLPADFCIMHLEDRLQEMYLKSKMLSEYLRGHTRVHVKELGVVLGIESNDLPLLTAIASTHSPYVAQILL

Flag-FNIP2 = biological target: T3, Flag-FNIP2 (UniProt Q9P278); experiment: co-IP; both partners in HEK293 cells (transfected tagged constructs and/or endogenous proteins); lysis in 50 mM Tris-HCl pH 8.0, 150 mM NaCl, 1% NP40, 0.5% sodium deoxycholate; beads at 4 °C overnight, washed with PBS; in some panels cells treated with LLOMe (1 mM, 2 h) or DMSO, or with siRNA or overexpression of a third protein
T3 sequence: T2 sequence

HA-FLCN = biological target: T4, HA-FLCN (UniProt Q8NFG4); experiment: as above
T4 sequence: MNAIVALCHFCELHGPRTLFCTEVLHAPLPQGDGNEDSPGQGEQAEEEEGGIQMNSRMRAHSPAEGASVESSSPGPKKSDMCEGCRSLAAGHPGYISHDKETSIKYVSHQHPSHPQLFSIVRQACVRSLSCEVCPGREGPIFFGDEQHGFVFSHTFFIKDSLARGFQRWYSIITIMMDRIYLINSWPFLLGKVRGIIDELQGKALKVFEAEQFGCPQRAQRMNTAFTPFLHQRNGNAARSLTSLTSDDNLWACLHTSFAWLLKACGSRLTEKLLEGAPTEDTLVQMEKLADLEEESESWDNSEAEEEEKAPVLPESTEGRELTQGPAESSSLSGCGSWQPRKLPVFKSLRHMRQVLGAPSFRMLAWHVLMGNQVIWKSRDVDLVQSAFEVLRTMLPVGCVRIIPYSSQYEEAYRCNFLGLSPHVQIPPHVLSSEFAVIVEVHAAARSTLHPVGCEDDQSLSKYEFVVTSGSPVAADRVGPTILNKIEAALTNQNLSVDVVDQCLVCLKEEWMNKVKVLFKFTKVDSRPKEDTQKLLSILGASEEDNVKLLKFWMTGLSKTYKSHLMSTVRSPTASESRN

HA-FNIP2 [2] = biological target: T2, HA-FNIP2; experiment: as above
HA-FNIP2-K466R = biological target: T5, HA-FNIP2-K466R (UniProt Q9P278); experiment: as above
T5 sequence: T2 sequence with K466R

GST-PPP3CB (22-525) = experiment: pull-down; GST pull-down: GST fusion purified from E. coli on beads, tagged partner expressed in HEK293 cells; 4 °C overnight, washed with PBS; only the target purified
GST-PPP3CB (1-66) = experiment: as above

His-Flag-PPP3CB (enzyme)
binding (HA-FNIP2 (1-391)): binds
binding (HA-FNIP2 [1]): binds

HA-PPP3CB (enzyme)
binding (Flag-FNIP2): binds

Flag-FNIP1
binding (HA-FLCN): binds
binding (HA-FNIP2 [2]): binds
binding (HA-FNIP2-K466R): binds

B1: HA-FNIP2 (protein, UniProt Q9P278 1-1114)
chain: T2 sequence
binding (GST-PPP3CB (22-525)): binds
binding (GST-PPP3CB (1-66)): binds
